Our source for the binding values is article PMC6499997, “SGIP1α functions as a selective endocytic adaptor for the internalization of synaptotagmin 1 at synapses” (Molecular Brain, 2019).

Chains of the proteins cited; added tags and fusions are not shown.
UniProt P21707: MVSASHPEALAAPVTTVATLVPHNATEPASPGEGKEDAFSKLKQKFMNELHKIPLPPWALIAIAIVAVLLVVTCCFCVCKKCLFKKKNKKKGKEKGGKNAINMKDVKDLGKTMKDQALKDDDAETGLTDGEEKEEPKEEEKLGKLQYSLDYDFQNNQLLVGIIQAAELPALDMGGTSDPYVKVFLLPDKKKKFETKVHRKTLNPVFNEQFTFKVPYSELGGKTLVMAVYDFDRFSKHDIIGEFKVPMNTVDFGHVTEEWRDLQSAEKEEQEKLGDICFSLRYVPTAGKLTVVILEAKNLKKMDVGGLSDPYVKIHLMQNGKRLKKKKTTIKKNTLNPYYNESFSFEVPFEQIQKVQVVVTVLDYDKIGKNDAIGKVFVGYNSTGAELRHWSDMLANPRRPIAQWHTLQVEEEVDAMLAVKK

This experiment deals with T1, GST-tagged SGIP1α (mouse) (UniProt Q8VD37).
T1 sequence: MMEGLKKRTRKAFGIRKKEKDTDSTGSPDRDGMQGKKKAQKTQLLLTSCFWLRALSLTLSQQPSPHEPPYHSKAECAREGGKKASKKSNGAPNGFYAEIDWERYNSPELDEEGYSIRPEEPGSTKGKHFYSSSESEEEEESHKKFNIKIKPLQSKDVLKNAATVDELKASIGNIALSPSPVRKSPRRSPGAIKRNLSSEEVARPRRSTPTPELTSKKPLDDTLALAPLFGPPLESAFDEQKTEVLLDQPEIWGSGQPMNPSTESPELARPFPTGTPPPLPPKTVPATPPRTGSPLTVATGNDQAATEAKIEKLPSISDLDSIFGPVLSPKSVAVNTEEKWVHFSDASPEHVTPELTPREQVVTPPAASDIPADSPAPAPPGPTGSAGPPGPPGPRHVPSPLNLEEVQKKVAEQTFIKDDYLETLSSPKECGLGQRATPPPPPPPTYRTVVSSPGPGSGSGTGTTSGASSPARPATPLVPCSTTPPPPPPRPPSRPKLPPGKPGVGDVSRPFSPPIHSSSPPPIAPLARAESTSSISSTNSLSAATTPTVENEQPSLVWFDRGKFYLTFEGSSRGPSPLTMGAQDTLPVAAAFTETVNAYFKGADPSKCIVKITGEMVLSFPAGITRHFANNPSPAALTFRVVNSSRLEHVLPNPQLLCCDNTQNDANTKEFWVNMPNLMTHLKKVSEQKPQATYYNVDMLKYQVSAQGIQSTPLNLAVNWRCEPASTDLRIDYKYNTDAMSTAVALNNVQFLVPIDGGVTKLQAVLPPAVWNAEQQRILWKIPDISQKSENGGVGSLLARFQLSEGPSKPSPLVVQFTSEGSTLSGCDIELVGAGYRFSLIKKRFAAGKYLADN
The experiment is described as follows: pull-down; purified GST-SGIP1α or GST-SGIP1α-μHD immobilised on glutathione-sepharose, incubated with rat hippocampal neuron lysate; bound proteins eluted by boiling, SDS-PAGE, Coomassie stain and blot with Syt1 antibody; only the target purified.

No constants are given. Whether binding was seen depends on the method and setting. Binding seen in cells or lysates may run through a third protein. Some binding calls cover weakened binding; strength is not graded here. Tags and fused reporters may be left off the sequences shown.

For the substance “synaptotagmin 1 (endogenous, rat hippocampal neurons) (from UniProt P21707 1-421)”, the binding result was “binds”.
